Assay results: US6407060
No constants are given. Whether binding was seen depends on the method and setting. Binding seen in cells or lysates may run through a third protein. Some entries that bind do so weakly or less than the wild type.

Protein sequences, listed by entry. Tags and fused reporters are not part of them. Lines headed by an entry give the natural chain unless they say otherwise; changes in a name come on top.
UniProt P18075: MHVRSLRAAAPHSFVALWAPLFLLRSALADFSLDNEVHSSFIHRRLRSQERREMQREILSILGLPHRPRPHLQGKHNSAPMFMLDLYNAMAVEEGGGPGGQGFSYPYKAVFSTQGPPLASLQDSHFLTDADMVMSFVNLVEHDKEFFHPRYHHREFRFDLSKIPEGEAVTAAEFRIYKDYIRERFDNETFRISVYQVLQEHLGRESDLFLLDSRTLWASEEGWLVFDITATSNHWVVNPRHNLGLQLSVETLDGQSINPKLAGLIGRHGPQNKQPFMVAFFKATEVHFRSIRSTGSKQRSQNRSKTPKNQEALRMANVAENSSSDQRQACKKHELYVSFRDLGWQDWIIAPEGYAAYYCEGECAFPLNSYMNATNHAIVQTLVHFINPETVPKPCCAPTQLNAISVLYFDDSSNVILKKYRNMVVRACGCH

Target: mature OP-1 dimer (human) (UniProt P18075)
Assay: co-purification from CHO conditioned medium without denaturants (Zn-IMAC, S-Sepharose, Sephacryl S-200HR gel filtration); complex elutes at apparent 110 kDa

binding: binds
Substance: OP-1 pro-domain (from UniProt P18075 30-292)
